Laboratory results taken from paper PMC7032926.
Results are given in words; binding and its absence hold for the method and conditions named. In cells and extracts the contact can be indirect. Some binding calls cover weakened binding; strength is not graded here.

By UniProt entry, the sequences of proteins in these tests, tags left out. Residues count along the entry.
UniProt Q99836: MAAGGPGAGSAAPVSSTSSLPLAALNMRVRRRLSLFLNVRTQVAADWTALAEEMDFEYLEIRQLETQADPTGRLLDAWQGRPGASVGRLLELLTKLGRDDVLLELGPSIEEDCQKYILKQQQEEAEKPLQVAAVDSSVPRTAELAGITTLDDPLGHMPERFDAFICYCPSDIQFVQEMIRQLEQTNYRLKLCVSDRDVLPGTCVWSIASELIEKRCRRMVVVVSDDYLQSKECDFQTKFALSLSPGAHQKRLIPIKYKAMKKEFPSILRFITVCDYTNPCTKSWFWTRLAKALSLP
UniProt P22366: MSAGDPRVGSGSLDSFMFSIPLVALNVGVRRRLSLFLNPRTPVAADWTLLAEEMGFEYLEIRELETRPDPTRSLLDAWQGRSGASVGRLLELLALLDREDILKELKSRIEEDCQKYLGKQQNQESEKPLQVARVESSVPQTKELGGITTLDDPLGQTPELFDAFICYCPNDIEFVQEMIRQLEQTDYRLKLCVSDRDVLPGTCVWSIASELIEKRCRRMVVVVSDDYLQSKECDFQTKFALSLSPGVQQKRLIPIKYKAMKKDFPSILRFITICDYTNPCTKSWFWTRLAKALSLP
UniProt O00206, residues 24-839: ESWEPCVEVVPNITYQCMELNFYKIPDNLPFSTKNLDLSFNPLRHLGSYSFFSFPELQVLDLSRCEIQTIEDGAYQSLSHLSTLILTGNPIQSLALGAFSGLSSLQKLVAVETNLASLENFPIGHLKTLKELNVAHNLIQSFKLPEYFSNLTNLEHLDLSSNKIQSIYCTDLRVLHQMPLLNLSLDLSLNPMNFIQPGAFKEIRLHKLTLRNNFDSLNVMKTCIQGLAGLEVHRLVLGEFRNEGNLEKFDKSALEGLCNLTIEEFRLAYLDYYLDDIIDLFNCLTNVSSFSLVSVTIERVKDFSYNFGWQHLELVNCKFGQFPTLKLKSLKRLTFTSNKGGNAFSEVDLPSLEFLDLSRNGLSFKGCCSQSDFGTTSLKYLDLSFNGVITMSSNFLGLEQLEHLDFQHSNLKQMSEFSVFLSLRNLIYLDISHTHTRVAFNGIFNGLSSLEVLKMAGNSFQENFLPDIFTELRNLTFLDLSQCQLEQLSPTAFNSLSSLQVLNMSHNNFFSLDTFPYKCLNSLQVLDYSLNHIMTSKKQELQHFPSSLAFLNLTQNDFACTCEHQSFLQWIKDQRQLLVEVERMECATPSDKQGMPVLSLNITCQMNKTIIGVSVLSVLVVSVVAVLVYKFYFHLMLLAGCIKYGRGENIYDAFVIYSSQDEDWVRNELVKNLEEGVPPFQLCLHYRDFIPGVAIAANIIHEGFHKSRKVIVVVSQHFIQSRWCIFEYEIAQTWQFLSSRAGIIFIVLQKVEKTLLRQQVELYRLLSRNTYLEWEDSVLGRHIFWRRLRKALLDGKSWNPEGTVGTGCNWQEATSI
UniProt Q9QUK6, residues 26-835: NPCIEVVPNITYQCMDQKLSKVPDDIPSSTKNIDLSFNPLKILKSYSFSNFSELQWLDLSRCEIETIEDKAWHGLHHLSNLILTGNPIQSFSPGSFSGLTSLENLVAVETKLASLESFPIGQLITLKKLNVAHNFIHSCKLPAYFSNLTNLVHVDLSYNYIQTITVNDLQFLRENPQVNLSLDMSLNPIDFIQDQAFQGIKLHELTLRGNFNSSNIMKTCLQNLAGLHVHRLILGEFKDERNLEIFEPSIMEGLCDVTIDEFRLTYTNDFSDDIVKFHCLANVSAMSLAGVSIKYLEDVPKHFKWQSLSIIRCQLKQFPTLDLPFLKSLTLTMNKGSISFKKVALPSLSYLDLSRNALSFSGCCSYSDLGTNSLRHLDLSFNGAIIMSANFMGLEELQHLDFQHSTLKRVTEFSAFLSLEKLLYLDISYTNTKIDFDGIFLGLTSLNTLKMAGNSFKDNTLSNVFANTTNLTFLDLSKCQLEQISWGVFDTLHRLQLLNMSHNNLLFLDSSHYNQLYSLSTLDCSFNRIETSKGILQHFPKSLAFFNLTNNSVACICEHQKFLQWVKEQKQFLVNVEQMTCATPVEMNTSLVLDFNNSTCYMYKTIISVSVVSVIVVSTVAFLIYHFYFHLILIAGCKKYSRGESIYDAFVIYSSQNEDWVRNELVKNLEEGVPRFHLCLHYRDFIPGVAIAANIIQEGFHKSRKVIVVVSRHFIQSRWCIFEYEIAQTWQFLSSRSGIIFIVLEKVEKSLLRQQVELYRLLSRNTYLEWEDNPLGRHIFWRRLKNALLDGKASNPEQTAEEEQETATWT

How the values were obtained:
[1] = biological target: MYD88 (human, endogenous in primary monocyte-derived macrophages) (human (endogenous in monocyte-derived macrophages)) (UniProt Q99836); test: co-IP; endogenous proteins in primary human monocyte-derived macrophages after LPS exposure; immunoblot
[2] = biological target: MyD88 (mouse, endogenous in bone marrow derived macrophages) (mouse (endogenous in BMDM)) (UniProt P22366); test: co-IP; endogenous proteins in lysates of primary murine BMDM (wildtype C57BL/6; for IRAK4 also Tlr5-deficient) after 100 ng/mL ultrapure LPS for indicated times; lysis in 0.5% TritonX-100, 20 mM HEPES pH 7.4, 150 mM NaCl, 1.5 mM MgCl2, 2 mM EGTA; protein G-Sepharose; immunoblot

Row | Substance | binding [1] | binding [2]
1 | TLR4 (human, endogenous in primary monocyte-derived macrophages) (from UniProt O00206 24-839) (receptor) | binds | –
2 | TLR4 (mouse, endogenous in bone marrow derived macrophages) (from UniProt Q9QUK6 26-835) (receptor) | – | binds
